Literature values as cited in publication PMC4875962 (Clinical Pharmacokinetics, 2015).

Legend:
Metabolic CYP enzymes = details: cited from earlier work
Transporters = details: cited from earlier work

SMILES | Metabolic CYP enzymes inhibited (Metabolic CYP enzymes) | Transporters inhibited (Transporters)
CCCCc1oc2ccccc2c1C(=O)c1cc(I)c(OCCN(CC)CC)c(I)c1 [Amiodarone] | Moderate 2C9; weak 2D6, 3A | P-gp
CC(C)c1c(C(=O)Nc2ccccc2)c(-c2ccccc2)c(-c2ccc(F)cc2)n1CC[C@@H](O)C[C@@H](O)CC(=O)O [Atorvastatin] | Weak 3A4 | –
